Data reported in patent publication US20130142868A1 (priority 2010, published 2013).

Experiment: in vivo
Conditions: rat; for AUC: AUCplasma
[1] = inhaled or intranasal, 2.5 mg/kg

CN1CC[C@]23c4c5ccc(O)c4O[C@H]2[C@@H](O)C=C[C@H]3[C@H]1C5 [morphine]
AUC (inhaled or intranasal, 1 mg/kg): 105 ng·h/mL | Cmax (inhaled or intranasal, 1 mg/kg): 104 ng/mL | AUC [1]: 258 ng·h/mL | Cmax [1]: 195 ng/mL | AUC (inhaled or intranasal, 5 mg/kg): 478 ng·h/mL | Cmax (inhaled or intranasal, 5 mg/kg): 322 ng/mL | AUC (ip, 1 mg/kg): 104 ng·h/mL | Cmax (ip, 1 mg/kg): 97 ng/mL | AUC (ip, 2.5 mg/kg): 324 ng·h/mL | Cmax (ip, 2.5 mg/kg): 273 ng/mL | AUC (ip, 5 mg/kg): 698 ng·h/mL | Cmax (ip, 5 mg/kg): 579 ng/mL
